Measurements reported in PMC8748728.
These are yes or no findings as the source states them, for the method shown. In cells and extracts the contact can be indirect. Some results given as binding are weak or reduced against the parent protein; the word gives no strength. One block for each molecule: values may come before it.

Chains of the proteins cited; added tags and fusions are not shown.
UniProt Q13546: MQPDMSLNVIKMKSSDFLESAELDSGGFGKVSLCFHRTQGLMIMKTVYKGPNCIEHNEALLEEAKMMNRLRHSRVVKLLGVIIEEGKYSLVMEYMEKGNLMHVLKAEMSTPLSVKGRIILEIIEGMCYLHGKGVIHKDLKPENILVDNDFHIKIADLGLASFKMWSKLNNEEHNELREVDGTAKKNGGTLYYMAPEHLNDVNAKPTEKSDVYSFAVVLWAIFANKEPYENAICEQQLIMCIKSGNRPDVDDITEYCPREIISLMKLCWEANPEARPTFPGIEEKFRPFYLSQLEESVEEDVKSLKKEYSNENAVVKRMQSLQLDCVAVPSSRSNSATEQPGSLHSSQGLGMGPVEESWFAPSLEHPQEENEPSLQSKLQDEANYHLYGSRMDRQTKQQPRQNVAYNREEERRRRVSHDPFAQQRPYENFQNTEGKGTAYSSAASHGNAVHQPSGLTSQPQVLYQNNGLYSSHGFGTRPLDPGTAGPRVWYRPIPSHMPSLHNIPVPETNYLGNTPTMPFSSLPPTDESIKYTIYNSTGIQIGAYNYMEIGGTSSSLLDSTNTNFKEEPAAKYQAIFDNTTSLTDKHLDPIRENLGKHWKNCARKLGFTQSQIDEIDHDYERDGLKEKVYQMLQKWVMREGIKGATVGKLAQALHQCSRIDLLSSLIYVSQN

Target: SQSTM1/p62 (human (endogenous in HLE-B3)) (UniProt Q13501)
Test: co-IP; endogenous proteins; WT and ATG7 KO HLE-B3 cells treated with 200 μM H2O2 for indicated times; lysed in ice-cold NP-40 buffer with PMSF and phosphatase inhibitors; 2 μg/ml antibody (anti-p62, PKCι, RIP1 or TRAF6) overnight at 4 °C, protein G dynabeads 2 h at RT; immunoblot

binding: binds
Molecule: RIP1 (receptor-interacting protein kinase 1) (from UniProt Q13546 1-671)

binding: binds
B1: PKCι (protein, UniProt P41743 1-596)
chain: MPTQRDSSTMSHTVAGGGSGDHSHQVRVKAYYRGDIMITHFEPSISFEGLCNEVRDMCSFDNEQLFTMKWIDEEGDPCTVSSQLELEEAFRLYELNKDSELLIHVFPCVPERPGMPCPGEDKSIYRRGARRWRKLYCANGHTFQAKRFNRRAHCAICTDRIWGLGRQGYKCINCKLLVHKKCHKLVTIECGRHSLPQEPVMPMDQSSMHSDHAQTVIPYNPSSHESLDQVGEEKEAMNTRESGKASSSLGLQDFDLLRVIGRGSYAKVLLVRLKKTDRIYAMKVVKKELVNDDEDIDWVQTEKHVFEQASNHPFLVGLHSCFQTESRLFFVIEYVNGGDLMFHMQRQRKLPEEHARFYSAEISLALNYLHERGIIYRDLKLDNVLLDSEGHIKLTDYGMCKEGLRPGDTTSTFCGTPNYIAPEILRGEDYGFSVDWWALGVLMFEMMAGRSPFDIVGSSDNPDQNTEDYLFQVILEKQIRIPRSLSVKAASVLKSFLNKDPKERLGCHPQTGFADIQGHPFFRNVDWDMMEQKQVVPPFKPNISGEFGLDNFDSQFTNEPVQLTPDDDDIVRKIDQSEFEGFEYINPLLMSAEECV
